Results of single-concentration screens

The chains behind the UniProt entries cited, without tags or fusion partners. Residues count along the entry.
UniProt A4I591, 1-473: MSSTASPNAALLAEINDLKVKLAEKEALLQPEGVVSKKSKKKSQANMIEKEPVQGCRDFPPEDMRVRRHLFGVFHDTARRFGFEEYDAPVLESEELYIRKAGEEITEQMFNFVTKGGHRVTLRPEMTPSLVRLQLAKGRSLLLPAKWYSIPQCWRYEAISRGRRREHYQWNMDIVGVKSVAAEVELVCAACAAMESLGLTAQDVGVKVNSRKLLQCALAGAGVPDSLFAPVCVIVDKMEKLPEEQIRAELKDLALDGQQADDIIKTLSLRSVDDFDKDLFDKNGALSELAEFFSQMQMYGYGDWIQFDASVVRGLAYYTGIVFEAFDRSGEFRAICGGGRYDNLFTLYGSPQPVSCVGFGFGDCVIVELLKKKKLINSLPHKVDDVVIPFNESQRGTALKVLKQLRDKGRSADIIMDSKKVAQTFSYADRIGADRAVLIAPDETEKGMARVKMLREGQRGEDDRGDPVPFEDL
UniProt P9WFT3, whole entry: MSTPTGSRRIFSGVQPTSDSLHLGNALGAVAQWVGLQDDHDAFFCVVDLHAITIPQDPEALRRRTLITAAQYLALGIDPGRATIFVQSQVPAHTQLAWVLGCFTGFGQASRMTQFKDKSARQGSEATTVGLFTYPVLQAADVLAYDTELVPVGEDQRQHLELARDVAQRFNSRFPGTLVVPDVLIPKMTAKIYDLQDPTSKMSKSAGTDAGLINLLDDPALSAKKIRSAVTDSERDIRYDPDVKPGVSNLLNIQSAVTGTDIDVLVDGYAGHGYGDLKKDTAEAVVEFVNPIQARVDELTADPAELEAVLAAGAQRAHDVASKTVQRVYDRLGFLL
UniProt P9WNZ1, whole entry: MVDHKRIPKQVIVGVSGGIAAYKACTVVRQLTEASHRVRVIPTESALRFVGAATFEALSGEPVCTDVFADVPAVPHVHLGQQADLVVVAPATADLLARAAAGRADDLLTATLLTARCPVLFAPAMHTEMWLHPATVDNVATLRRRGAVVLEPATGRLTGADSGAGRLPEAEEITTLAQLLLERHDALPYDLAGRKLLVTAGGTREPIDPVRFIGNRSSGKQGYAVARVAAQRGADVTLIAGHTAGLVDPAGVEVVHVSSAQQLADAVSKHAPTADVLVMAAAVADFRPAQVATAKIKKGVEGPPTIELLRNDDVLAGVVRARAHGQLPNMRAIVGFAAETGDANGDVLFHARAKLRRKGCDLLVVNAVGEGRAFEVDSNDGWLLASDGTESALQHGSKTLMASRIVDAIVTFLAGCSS

Measurements from “University of Dundee, Small-Polar-MMV Screening Library” (2021), ChEMBL document CHEMBL3988442.

LiHisRS: 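Histidine-tRNA ligase, Leishmania infantum (UniProt A4I591). Enzyme assay of histidyl-tRNA synthetase; the read-out is not stated. Compounds at 30 µM. The record gives no direction; compounds that gave an IC50 in retests scored well above the rest, so higher reads as stronger inhibition. The assay is labelled LdHisRS but filed under L. infantum. Size under these conditions: about 69,000 compounds, about 410 of them at 50% or above in at least one test.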
MtTrpRS: 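Enzyme assay of tryptophanyl-tRNA synthetase; the read-out is not stated. Target: Tryptophan-tRNA ligase, Mycobacterium tuberculosis (UniProt P9WFT3). Tested at 10 µM. Higher most likely means stronger inhibition; the record gives no direction and few retests gave an IC50. Of about 65,000 compounds tested this way, about 64 (0.098%) reached 50% or more in at least one test.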
Toxoplasma: 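Assay of Toxoplasma gondii numbers, read through their beta-galactosidase reporter with a colour substrate. Tested at 10 µM. The record gives no direction; the compounds picked for IC50 retests had high values, so higher reads as fewer parasites. Of about 67,000 compounds tested this way, about 260 (0.38%) reached 50% or more in at least one test.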
CoaBC: 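Coenzyme A biosynthesis protein CoaBC, Mycobacterium tuberculosis (UniProt P9WNZ1). Enzyme assay of CoaBC with a phosphate dye (Biomol Green) read at 650 nm. Concentration: 30 µM. Higher reads as stronger inhibition, judged from the few compounds that gave an IC50. Most strong results did not repeat in a second test. About 67,000 compounds were tested under these conditions; 0.06% (about 40) showed 50% or more at least once.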

Values are the deposited “Percent Effect”, in %.
How 0% and 100% were set is not recorded. Most values in the screen are low, and negative values occur.
The compounds are a random part of those screened.
A dash means the value is not listed here; it may have been measured.

structure,LiHisRS,MtTrpRS,Toxoplasma,CoaBC
Cc1nn(Cn2ccc(C(=O)N3CCCC(C)C3)n2)c(C)c1Cl (stereo not given),17.24,-0.7341,13.3,14.99
CC(=O)Nn1c(C)cc(CN2CCC(C(=O)N3CCCC3)CC2)c1C,22.67,1.326,-6.369,5.372
COC(=O)CC(NC(=O)c1cccc(N2CCCC2=O)c1)C(=O)OC (stereo not given),18.42,-4.47,0.8125,-11.69
CCC(CC)C(=O)N1CCN(Cc2cc(=O)c3ccccc3[nH]2)CC1,20.65,1.555,29.51,3.995
CNC(=O)c1csc(-c2cccnc2)n1,11.88,-,-1.371,1.214
Cc1cccc(O[C@H]2COCCN(C3CCOCC3)C2)n1,21.62,-2.365,1.116,-0.1965
CNC(=O)[C@@H]1C[C@H](N)CN1Cc1cc2cc(OC)ccc2nc1O,28.12,4.124,-2.628,1.518
Cc1nc(Nc2cnccn2)cc(C2CN(C(C)C)C2)n1,10,-,-,0.8674
Cc1cc(CC(=O)N2CCN(CC3CC3)[C@@H]3CS(=O)(=O)C[C@@H]32)ccc1F,20.19,-2.275,-,2.954
CN(Cc1ccc(CCC(C)(C)O)cc1)CC1(CO)CC1,16.39,-2.929,12.12,-3.947
C/C=C(\C)CN1C[C@H](NC(=O)c2cc[nH]c2C)[C@@H](C2CC2)C1,14.47,1.371,-3.448,-11.94
CCN1CCC2(COCc3cnc(-c4cccnc4)nc32)C1 (stereo not given),15.04,1.482,2.851,7.455
COCCC(=O)N1CCC2(CC1)CN(S(C)(=O)=O)Cc1ccccc1O2,2.899,-7.187,3.02,-12.35
COc1ccc(Cn2ccnc2)cc1F,6.522,-2.214,9.145,-1.937
O=C(O)C(F)(F)F.[H][C@@]12CCN(c3ncccn3)C[C@@]1([H])O[C@@H](C(=O)NCc1ccco1)C2,-,-,8.164,-
O=C(O)C(F)(F)F.O=c1cc(CNS(=O)(=O)C2CC2)nc2n1CCCN(CC1CC1)C2,-,-,-60.56,-
CC(C)(C)C(N)c1nc(-c2nnc[nH]2)no1 (stereo not given),10.42,3.311,-8.215,1.923
CN(Cc1ccncc1)C1CCC[C@@H]2CN(c3ncccn3)C[C@H]12 (stereo not given in full),19.3,-4.44,-,4.44
CC(C)CN1CCCC2(CCN(C(=O)c3cnccn3)C2)C1 (stereo not given),0.9709,-4.741,-10.53,1.141
Cc1nnc(N2C[C@@H]3CCCO[C@@H]3[C@H](N3CCCC3=O)C2)s1,10.34,0.5394,-,-
CN(C)CCCNc1ncnc2cccc(F)c12,-0.8547,7.89,-18.73,-7.983
O=C(O)C(F)(F)F.[H][C@@]12CCN(Cc3ccc4c(c3)OCO4)C[C@]1([H])O[C@@H](C(=O)NCC1CC1)C2,-,-,0.2973,-
Cc1nc(COC[C@H]2CCC[C@@]23CN(C(C)C)CCO3)cs1,10.09,1.299,-,-0.6085
Cc1ccc(C)c(NC(=O)N2C[C@H](N(C)C)C[C@H]2CO)c1,8.197,-0.3661,12.12,-8.014
CNc1ncc(CN2CCC(c3nnsc3S(C)(=O)=O)CC2)cn1,18.56,-,2.814,1.453
Cc1nnc(SC2CCc3ccccc3NC2=O)n1C (stereo not given),10,-0.5424,-21.19,-2.405
COc1cccc(-n2nnc(C(=O)N3CCCCCC3)c2C)c1,19.44,-1.203,13.3,5.263
COCC(=O)N1CCc2nc(NC(C)C)nc(NC(C)C)c2CC1,10,-,-24.9,4.938
Cc1nc(CN2CCCC(Cn3cc(CCO)nn3)C2)c2ccccn12 (stereo not given),8.333,-3.159,-0.5247,0.3968
Cc1cnn(C2CCCN(C(=O)c3ccnc(-n4ccnc4)c3)C2)c1 (stereo not given),16.22,0.8772,-9.505,8.355
c1ccc(-n2cc(CNCC3CCCN3c3cccnn3)cn2)cc1 (stereo not given),21.93,0.4125,2.637,6.128
Cn1nc(C2CCCN(C(=O)Cc3ccsc3)C2)c2nccnc21 (stereo not given),11.11,-1.589,18.51,2.5

For reference, 4 entries once more:

{"structure": "Cc1nc(CN2CCCC(Cn3cc(CCO)nn3)C2)c2ccccn12", "stereo": "stereo not given", "LiHisRS": 8.333, "MtTrpRS": -3.159, "Toxoplasma": -0.5247, "CoaBC": 0.3968}
{"structure": "Cc1nc(Nc2cnccn2)cc(C2CN(C(C)C)C2)n1", "LiHisRS": 10, "CoaBC": 0.8674}
{"structure": "COCC(=O)N1CCc2nc(NC(C)C)nc(NC(C)C)c2CC1", "LiHisRS": 10, "Toxoplasma": -24.9, "CoaBC": 4.938}
{"structure": "CC(C)CN1CCCC2(CCN(C(=O)c3cnccn3)C2)C1", "stereo": "stereo not given", "LiHisRS": 0.9709, "MtTrpRS": -4.741, "Toxoplasma": -10.53, "CoaBC": 1.141}